Assay results from article PMC3519738.
No constants are given. Whether binding was seen depends on the method and setting. In cells and extracts the contact can be indirect. Some binding calls cover weakened binding; strength is not graded here.

The chains behind the UniProt entries cited, without tags or fusion partners. Residues count along the entry.
UniProt Q63495, residues 23-402: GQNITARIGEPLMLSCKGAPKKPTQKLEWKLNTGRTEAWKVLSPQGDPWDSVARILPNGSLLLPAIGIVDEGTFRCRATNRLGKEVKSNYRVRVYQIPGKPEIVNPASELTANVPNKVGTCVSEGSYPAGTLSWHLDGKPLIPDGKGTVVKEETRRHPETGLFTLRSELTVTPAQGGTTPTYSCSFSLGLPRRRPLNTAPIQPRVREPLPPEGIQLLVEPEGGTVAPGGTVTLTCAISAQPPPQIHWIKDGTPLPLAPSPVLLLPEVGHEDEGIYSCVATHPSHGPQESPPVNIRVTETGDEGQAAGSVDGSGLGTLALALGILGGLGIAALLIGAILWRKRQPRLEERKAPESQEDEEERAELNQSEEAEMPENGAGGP
UniProt D4A7Q2: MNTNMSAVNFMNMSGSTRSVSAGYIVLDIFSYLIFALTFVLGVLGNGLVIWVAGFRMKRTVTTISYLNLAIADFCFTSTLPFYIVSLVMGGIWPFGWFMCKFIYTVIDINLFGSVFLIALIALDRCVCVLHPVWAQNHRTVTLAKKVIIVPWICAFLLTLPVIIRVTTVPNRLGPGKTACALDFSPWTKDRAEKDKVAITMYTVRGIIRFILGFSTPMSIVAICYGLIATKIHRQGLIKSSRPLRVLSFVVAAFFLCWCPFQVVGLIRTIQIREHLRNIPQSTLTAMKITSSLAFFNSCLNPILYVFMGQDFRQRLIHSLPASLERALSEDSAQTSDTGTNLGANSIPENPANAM
UniProt P25090: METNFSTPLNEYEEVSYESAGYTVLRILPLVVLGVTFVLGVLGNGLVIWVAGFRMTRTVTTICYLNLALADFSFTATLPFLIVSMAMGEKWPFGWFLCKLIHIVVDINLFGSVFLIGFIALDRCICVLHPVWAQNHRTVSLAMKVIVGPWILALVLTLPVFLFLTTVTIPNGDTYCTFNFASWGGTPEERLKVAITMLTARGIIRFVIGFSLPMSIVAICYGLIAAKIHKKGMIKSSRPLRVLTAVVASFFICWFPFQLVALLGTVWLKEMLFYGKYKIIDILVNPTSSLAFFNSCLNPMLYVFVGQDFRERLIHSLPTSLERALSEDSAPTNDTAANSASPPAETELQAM
UniProt P21462: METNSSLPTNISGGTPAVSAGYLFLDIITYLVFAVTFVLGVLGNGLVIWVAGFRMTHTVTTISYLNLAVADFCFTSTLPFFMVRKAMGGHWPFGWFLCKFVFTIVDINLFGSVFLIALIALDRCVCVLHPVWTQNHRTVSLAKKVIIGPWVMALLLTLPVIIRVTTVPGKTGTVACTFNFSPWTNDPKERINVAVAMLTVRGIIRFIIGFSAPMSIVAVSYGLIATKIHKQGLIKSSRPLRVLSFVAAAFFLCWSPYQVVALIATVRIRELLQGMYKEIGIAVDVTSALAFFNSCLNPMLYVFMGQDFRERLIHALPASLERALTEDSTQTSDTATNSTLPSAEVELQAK
UniProt Q15109, residues 23-404: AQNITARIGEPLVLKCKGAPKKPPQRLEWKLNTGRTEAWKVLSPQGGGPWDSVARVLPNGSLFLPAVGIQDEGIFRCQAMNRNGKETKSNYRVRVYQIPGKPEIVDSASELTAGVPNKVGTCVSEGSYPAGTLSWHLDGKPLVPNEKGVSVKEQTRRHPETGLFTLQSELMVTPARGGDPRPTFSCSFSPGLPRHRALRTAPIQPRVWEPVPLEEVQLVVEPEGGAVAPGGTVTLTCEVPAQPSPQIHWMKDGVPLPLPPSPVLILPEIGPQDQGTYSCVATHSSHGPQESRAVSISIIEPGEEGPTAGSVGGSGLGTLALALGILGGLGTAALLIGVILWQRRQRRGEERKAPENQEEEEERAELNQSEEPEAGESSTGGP
UniProt A0A8I6AM80: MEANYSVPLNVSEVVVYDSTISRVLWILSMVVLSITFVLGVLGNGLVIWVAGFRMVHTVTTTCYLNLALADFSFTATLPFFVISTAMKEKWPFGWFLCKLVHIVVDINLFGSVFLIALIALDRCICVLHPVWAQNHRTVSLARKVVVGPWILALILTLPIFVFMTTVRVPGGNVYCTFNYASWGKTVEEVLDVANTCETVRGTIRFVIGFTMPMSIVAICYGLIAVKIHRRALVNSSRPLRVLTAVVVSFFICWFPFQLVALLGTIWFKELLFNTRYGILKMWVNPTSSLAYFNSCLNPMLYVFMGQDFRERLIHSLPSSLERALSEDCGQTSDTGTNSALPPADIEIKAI

Legend:
[1] = biological target: rat receptor for advanced glycation end products (RAGE) (rat (endogenous in primary astrocytes and microglia)) (UniProt Q63495); experiment: co-IP; RAGE precipitated from lysate of primary rat astrocytes or microglia; FPR1 and FPRL1 detected in the precipitates
[2] = biological target: rat formyl-peptide-receptor-like-1 (FPRL1) (rat (endogenous in primary astrocytes and microglia)); experiment: co-IP; membrane proteins of primary rat astrocytes or microglia in dodecylmaltoside detergent buffer; precipitated with anti-FPR1 or anti-FPRL1 on protein G agarose overnight at 4°C; blotted for FPR1, FPRL1, RAGE
[3] = biological target: rat formyl peptide receptor 1 (FPR1) (rat (endogenous in primary astrocytes and microglia)) (UniProt D4A7Q2); experiment: as above
[4] = biological target: human formyl-peptide-receptor-like-1 (hFPRL1) (human) (UniProt P25090); experiment: co-IP; membrane proteins of HEK293 cells stably co-expressing hFPR1 or hFPRL1 with hRAGE or ΔRAGE, in dodecylmaltoside detergent buffer; precipitated with anti-human FPR1 or FPRL1 on protein G agarose overnight at 4°C; blotted for FPR1, FPRL1, RAGE
[5] = biological target: human formyl peptide receptor 1 (hFPR1) (human) (UniProt P21462); experiment: as above

rat formyl peptide receptor 1 (FPR1) (from UniProt D4A7Q2 1-355)
binding [1]: binds

rat receptor for advanced glycation end products (RAGE) (from UniProt Q63495 23-402)
binding [2]: binds
binding [3]: binds

human receptor for advanced glycation end products (hRAGE) (from UniProt Q15109 23-404)
binding [4]: binds
binding [5]: binds

rat formyl-peptide-receptor-like-1 (FPRL1) (from UniProt A0A8I6AM80 1-351)
binding [1]: binds
